Experimental findings from patent US20220380408A1, “COMPOSITIONS AND METHODS FOR INHIBITING NEOINTIMAL FORMATION” (University of Virginia Patent Foundation, priority 2019, published 2022) are described below.

Chains of the proteins cited; added tags and fusions are not shown.
UniProt P24864: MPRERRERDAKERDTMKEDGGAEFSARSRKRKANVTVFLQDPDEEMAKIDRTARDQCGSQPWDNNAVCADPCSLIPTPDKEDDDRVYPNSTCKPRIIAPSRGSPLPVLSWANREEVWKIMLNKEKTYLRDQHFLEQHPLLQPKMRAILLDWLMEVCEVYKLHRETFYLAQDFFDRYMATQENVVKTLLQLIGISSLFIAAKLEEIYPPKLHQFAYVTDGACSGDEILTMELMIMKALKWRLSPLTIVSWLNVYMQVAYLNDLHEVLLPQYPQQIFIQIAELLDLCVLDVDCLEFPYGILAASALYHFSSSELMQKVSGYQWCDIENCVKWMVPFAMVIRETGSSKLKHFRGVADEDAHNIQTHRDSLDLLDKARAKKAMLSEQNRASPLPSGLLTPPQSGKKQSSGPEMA

Test [1] has as its target T1, cyclin E (Homo sapiens, UniProt P24864). Briefly: truncation peptide array probed with recombinant cyclin E.
The target of test [2] is T1, cyclin E. Briefly: peptide array on nitrocellulose probed with recombinant cyclin E, anti-cyclin E antibody, ECL.

These are yes or no findings as the source states them, for the method shown. Some binding calls cover weakened binding; strength is not graded here.

In the case of DPSKDCGDPKYAY […, minimum Cx43 sequence of the truncation array], the binding result in test [1] is given as “binds”.
QGPLGVKDRVKGRSDPYHATTGPLD [Peptide 1 (…), Cx43-CT array peptide]: the binding result in test [2] is reported as “binds”.
Turning to APLDPMDPPGYKLVTGDRNNSSCRN [Peptide 3 (…), Cx43-CT array peptide], the binding result in test [2] was “binds”.
